For assay [1], the target named is T1, recombinant soluble E-selectin construct (rE-selectin-IgG) (UniProt P16581).
T1 sequence: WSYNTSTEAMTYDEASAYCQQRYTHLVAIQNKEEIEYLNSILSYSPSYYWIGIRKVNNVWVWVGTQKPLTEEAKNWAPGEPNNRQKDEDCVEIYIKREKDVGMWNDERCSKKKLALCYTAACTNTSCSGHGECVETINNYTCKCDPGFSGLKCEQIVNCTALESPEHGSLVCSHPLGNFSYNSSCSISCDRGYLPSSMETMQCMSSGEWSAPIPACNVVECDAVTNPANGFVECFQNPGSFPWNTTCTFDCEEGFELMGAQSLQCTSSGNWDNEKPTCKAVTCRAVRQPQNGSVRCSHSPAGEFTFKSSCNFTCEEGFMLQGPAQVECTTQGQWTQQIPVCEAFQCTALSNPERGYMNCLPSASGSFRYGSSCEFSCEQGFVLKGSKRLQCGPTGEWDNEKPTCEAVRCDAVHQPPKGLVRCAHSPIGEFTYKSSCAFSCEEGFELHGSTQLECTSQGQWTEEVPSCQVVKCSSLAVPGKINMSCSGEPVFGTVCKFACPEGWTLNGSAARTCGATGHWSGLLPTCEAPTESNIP
Briefly: pull-down; rE-selectin-IgG on Protein G Dynabeads, lysate of 100 million KG1a-derived exosomes, overnight at 4°C, 2 mM calcium also in the washes; western blot for each ligand; only the target purified.

Sequences of proteins named here, by UniProt entry; tags and fusion partners are left off. Residues count along the entry.
UniProt P28906, residues 32-385: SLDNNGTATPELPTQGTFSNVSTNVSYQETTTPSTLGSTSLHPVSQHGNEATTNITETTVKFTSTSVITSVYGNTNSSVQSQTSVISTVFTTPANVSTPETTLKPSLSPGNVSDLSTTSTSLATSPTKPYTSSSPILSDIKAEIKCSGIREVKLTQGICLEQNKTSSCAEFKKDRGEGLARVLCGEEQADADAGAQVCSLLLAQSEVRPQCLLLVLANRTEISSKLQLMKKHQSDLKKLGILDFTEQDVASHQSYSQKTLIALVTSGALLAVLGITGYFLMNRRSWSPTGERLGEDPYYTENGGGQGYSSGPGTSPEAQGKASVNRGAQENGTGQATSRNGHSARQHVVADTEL

Assay [2] has as its target CD34 of KG1a-derived exosomes (human (endogenous in KG-1a)) (UniProt P28906). The experiment in a line: far-Western, overlay or dot blot; each ligand immunoprecipitated with its antibody from lysates of KG1a-derived exosomes, resolved on a gel and blotted with rE-selectin-IgG; only the binder purified.

These are yes or no findings as the source states them, for the method shown. For some assays here: Binding seen in cells or lysates may run through a third protein. Some entries that bind do so weakly or less than the wild type.

Turning to “CD34 of KG1a-derived exosomes (from UniProt P28906 32-385)”, the binding result in assay [1] is on record as “binds”.

B1: recombinant soluble E-selectin construct (rE-selectin-IgG) (Fc fusion, UniProt P16581 22-556)
chain: WSYNTSTEAMTYDEASAYCQQRYTHLVAIQNKEEIEYLNSILSYSPSYYWIGIRKVNNVWVWVGTQKPLTEEAKNWAPGEPNNRQKDEDCVEIYIKREKDVGMWNDERCSKKKLALCYTAACTNTSCSGHGECVETINNYTCKCDPGFSGLKCEQIVNCTALESPEHGSLVCSHPLGNFSYNSSCSISCDRGYLPSSMETMQCMSSGEWSAPIPACNVVECDAVTNPANGFVECFQNPGSFPWNTTCTFDCEEGFELMGAQSLQCTSSGNWDNEKPTCKAVTCRAVRQPQNGSVRCSHSPAGEFTFKSSCNFTCEEGFMLQGPAQVECTTQGQWTQQIPVCEAFQCTALSNPERGYMNCLPSASGSFRYGSSCEFSCEQGFVLKGSKRLQCGPTGEWDNEKPTCEAVRCDAVHQPPKGLVRCAHSPIGEFTYKSSCAFSCEEGFELHGSTQLECTSQGQWTEEVPSCQVVKCSSLAVPGKINMSCSGEPVFGTVCKFACPEGWTLNGSAARTCGATGHWSGLLPTCEAPTESNIP
As for B1, in assay [2], the binding entry is on record as “binds”.

The record behind these values is paper PMC10166801.
